Results reported in paper PMC7476095.
These are yes or no findings as the source states them, for the method shown. In cells and extracts the contact can be indirect. Some binding calls cover weakened binding; strength is not graded here. For part of these data: Where a sequence is shown, tags or fusion partners need not be part of it.

Chains of the proteins cited; added tags and fusions are not shown.
UniProt P13010: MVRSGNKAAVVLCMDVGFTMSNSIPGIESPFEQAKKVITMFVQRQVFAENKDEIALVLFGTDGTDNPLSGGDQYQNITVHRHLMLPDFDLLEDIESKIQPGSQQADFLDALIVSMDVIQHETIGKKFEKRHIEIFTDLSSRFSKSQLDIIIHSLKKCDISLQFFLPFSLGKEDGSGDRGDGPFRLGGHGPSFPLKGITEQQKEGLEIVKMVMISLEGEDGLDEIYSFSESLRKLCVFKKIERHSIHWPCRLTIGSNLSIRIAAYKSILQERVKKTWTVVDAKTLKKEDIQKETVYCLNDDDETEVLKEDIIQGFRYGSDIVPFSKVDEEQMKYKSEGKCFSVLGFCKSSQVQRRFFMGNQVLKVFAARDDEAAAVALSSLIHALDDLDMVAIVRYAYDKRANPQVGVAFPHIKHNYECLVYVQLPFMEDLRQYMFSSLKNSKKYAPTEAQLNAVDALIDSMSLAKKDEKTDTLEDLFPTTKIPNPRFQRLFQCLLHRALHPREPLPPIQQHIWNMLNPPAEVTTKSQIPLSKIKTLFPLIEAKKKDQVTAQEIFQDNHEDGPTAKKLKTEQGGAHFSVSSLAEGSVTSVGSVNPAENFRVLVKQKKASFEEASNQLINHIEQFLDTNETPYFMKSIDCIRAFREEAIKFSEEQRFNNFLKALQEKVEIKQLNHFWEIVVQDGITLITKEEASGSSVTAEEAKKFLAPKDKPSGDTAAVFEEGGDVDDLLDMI

T1: FLAG-tagged wild type MAD1 (mitotic arrest-deficient protein 1) (UniProt Q9Y6D9)
T1 sequence: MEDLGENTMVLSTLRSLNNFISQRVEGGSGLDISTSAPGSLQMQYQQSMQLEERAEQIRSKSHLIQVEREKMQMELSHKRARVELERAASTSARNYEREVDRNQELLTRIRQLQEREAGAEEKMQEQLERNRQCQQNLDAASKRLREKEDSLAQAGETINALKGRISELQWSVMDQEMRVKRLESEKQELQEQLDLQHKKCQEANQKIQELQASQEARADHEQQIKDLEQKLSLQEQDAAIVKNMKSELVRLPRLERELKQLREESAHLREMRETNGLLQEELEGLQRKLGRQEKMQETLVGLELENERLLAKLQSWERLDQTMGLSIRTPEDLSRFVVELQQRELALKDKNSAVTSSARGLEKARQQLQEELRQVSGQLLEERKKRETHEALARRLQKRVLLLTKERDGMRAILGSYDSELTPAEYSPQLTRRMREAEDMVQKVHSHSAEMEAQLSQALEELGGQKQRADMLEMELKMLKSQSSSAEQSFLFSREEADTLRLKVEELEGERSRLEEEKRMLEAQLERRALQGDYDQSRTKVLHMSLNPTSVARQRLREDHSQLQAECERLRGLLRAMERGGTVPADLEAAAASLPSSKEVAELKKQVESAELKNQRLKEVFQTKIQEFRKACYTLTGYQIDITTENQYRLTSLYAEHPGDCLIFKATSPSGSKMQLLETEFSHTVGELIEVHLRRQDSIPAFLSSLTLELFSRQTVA

T2: FLAG-tagged MAD1-S214A mutant (UniProt Q9Y6D9)
T2 sequence: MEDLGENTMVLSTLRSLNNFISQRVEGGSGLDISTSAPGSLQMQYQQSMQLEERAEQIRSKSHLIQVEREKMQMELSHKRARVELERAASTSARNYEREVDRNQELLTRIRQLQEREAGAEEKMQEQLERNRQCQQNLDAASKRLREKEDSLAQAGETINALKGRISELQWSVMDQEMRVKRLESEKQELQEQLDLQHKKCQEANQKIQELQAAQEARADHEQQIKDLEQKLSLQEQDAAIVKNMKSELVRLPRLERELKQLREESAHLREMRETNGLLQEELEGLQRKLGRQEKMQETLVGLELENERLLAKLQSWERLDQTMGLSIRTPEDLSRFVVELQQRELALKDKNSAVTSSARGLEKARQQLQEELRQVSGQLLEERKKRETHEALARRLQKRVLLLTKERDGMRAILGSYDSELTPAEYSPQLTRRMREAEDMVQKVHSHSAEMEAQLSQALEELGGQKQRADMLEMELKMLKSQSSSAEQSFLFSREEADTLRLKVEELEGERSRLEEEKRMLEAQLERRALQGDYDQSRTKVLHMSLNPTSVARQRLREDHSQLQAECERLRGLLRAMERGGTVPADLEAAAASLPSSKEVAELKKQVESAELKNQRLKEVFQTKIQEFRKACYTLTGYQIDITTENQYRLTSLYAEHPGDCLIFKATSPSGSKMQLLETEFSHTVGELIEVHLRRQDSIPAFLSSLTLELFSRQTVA


How the values were obtained:
[1] = biological target: T1, FLAG-tagged wild type MAD1 (mitotic arrest-deficient protein 1); assay: co-IP; anti-FLAG-M2 agarose beads with whole cell lysates of HeLa or HCT116 cells transiently expressing FLAG-MAD1 (wild type or S214A), overnight at 4 °C, washed with TBS; cells mock-treated or IR (6 Gy), harvested 2 h after IR; blotted for KU80
[2] = biological target: T2, FLAG-tagged MAD1-S214A mutant; assay: as above
[3] = biological target: KU80 (human (endogenous in HeLa and HCT116)) (UniProt P13010); assay: co-IP; anti-KU80 antibody precipitates from HeLa or HCT116 cells transiently expressing FLAG-MAD1 (wild type or S214A); cells mock-treated or IR (6 Gy), harvested 2 h after IR; immunoblot
[4] = biological target: KU80 (human (endogenous in HeLa and HCT116)) (UniProt P13010); assay: co-IP; anti-KU80 antibody precipitates from HCT116 cells, with or without IR; immunoblot for MAD1 and p-MAD1

| binding [3] | binding [4] | Molecule | further results |
| --- | --- | --- | --- |
| – | – | KU80 (from UniProt P13010 1-732) | binding [1]: binds; binding [2]: binds |
| binds | – | FLAG-tagged wild type MAD1 (mitotic arrest-deficient protein 1) (protein, UniProt Q9Y6D9 1-718) MEDLGENTMVLSTLRSLNNFISQRVEGGSGLDISTSAPGSLQMQYQQSMQLEERAEQIRSKSHLIQVEREKMQMELSHKRARVELERAASTSARNYEREVDRNQELLTRIRQLQEREAGAEEKMQEQLERNRQCQQNLDAASKRLREKEDSLAQAGETINALKGRISELQWSVMDQEMRVKRLESEKQELQEQLDLQHKKCQEANQKIQELQASQEARADHEQQIKDLEQKLSLQEQDAAIVKNMKSELVRLPRLERELKQLREESAHLREMRETNGLLQEELEGLQRKLGRQEKMQETLVGLELENERLLAKLQSWERLDQTMGLSIRTPEDLSRFVVELQQRELALKDKNSAVTSSARGLEKARQQLQEELRQVSGQLLEERKKRETHEALARRLQKRVLLLTKERDGMRAILGSYDSELTPAEYSPQLTRRMREAEDMVQKVHSHSAEMEAQLSQALEELGGQKQRADMLEMELKMLKSQSSSAEQSFLFSREEADTLRLKVEELEGERSRLEEEKRMLEAQLERRALQGDYDQSRTKVLHMSLNPTSVARQRLREDHSQLQAECERLRGLLRAMERGGTVPADLEAAAASLPSSKEVAELKKQVESAELKNQRLKEVFQTKIQEFRKACYTLTGYQIDITTENQYRLTSLYAEHPGDCLIFKATSPSGSKMQLLETEFSHTVGELIEVHLRRQDSIPAFLSSLTLELFSRQTVA | – |
| – | binds | MAD1 (mitotic arrest-deficient protein 1), endogenous (protein, UniProt Q9Y6D9 1-718) MEDLGENTMVLSTLRSLNNFISQRVEGGSGLDISTSAPGSLQMQYQQSMQLEERAEQIRSKSHLIQVEREKMQMELSHKRARVELERAASTSARNYEREVDRNQELLTRIRQLQEREAGAEEKMQEQLERNRQCQQNLDAASKRLREKEDSLAQAGETINALKGRISELQWSVMDQEMRVKRLESEKQELQEQLDLQHKKCQEANQKIQELQASQEARADHEQQIKDLEQKLSLQEQDAAIVKNMKSELVRLPRLERELKQLREESAHLREMRETNGLLQEELEGLQRKLGRQEKMQETLVGLELENERLLAKLQSWERLDQTMGLSIRTPEDLSRFVVELQQRELALKDKNSAVTSSARGLEKARQQLQEELRQVSGQLLEERKKRETHEALARRLQKRVLLLTKERDGMRAILGSYDSELTPAEYSPQLTRRMREAEDMVQKVHSHSAEMEAQLSQALEELGGQKQRADMLEMELKMLKSQSSSAEQSFLFSREEADTLRLKVEELEGERSRLEEEKRMLEAQLERRALQGDYDQSRTKVLHMSLNPTSVARQRLREDHSQLQAECERLRGLLRAMERGGTVPADLEAAAASLPSSKEVAELKKQVESAELKNQRLKEVFQTKIQEFRKACYTLTGYQIDITTENQYRLTSLYAEHPGDCLIFKATSPSGSKMQLLETEFSHTVGELIEVHLRRQDSIPAFLSSLTLELFSRQTVA | – |
| – | binds | p-MAD1 (MAD1 phosphorylated on serine 214), endogenous (protein, UniProt Q9Y6D9 1-718, phosphoserine at 214) MEDLGENTMVLSTLRSLNNFISQRVEGGSGLDISTSAPGSLQMQYQQSMQLEERAEQIRSKSHLIQVEREKMQMELSHKRARVELERAASTSARNYEREVDRNQELLTRIRQLQEREAGAEEKMQEQLERNRQCQQNLDAASKRLREKEDSLAQAGETINALKGRISELQWSVMDQEMRVKRLESEKQELQEQLDLQHKKCQEANQKIQELQASQEARADHEQQIKDLEQKLSLQEQDAAIVKNMKSELVRLPRLERELKQLREESAHLREMRETNGLLQEELEGLQRKLGRQEKMQETLVGLELENERLLAKLQSWERLDQTMGLSIRTPEDLSRFVVELQQRELALKDKNSAVTSSARGLEKARQQLQEELRQVSGQLLEERKKRETHEALARRLQKRVLLLTKERDGMRAILGSYDSELTPAEYSPQLTRRMREAEDMVQKVHSHSAEMEAQLSQALEELGGQKQRADMLEMELKMLKSQSSSAEQSFLFSREEADTLRLKVEELEGERSRLEEEKRMLEAQLERRALQGDYDQSRTKVLHMSLNPTSVARQRLREDHSQLQAECERLRGLLRAMERGGTVPADLEAAAASLPSSKEVAELKKQVESAELKNQRLKEVFQTKIQEFRKACYTLTGYQIDITTENQYRLTSLYAEHPGDCLIFKATSPSGSKMQLLETEFSHTVGELIEVHLRRQDSIPAFLSSLTLELFSRQTVA | – |
| binds | – | FLAG-tagged MAD1-S214A mutant (protein, UniProt Q9Y6D9 1-718) MEDLGENTMVLSTLRSLNNFISQRVEGGSGLDISTSAPGSLQMQYQQSMQLEERAEQIRSKSHLIQVEREKMQMELSHKRARVELERAASTSARNYEREVDRNQELLTRIRQLQEREAGAEEKMQEQLERNRQCQQNLDAASKRLREKEDSLAQAGETINALKGRISELQWSVMDQEMRVKRLESEKQELQEQLDLQHKKCQEANQKIQELQAAQEARADHEQQIKDLEQKLSLQEQDAAIVKNMKSELVRLPRLERELKQLREESAHLREMRETNGLLQEELEGLQRKLGRQEKMQETLVGLELENERLLAKLQSWERLDQTMGLSIRTPEDLSRFVVELQQRELALKDKNSAVTSSARGLEKARQQLQEELRQVSGQLLEERKKRETHEALARRLQKRVLLLTKERDGMRAILGSYDSELTPAEYSPQLTRRMREAEDMVQKVHSHSAEMEAQLSQALEELGGQKQRADMLEMELKMLKSQSSSAEQSFLFSREEADTLRLKVEELEGERSRLEEEKRMLEAQLERRALQGDYDQSRTKVLHMSLNPTSVARQRLREDHSQLQAECERLRGLLRAMERGGTVPADLEAAAASLPSSKEVAELKKQVESAELKNQRLKEVFQTKIQEFRKACYTLTGYQIDITTENQYRLTSLYAEHPGDCLIFKATSPSGSKMQLLETEFSHTVGELIEVHLRRQDSIPAFLSSLTLELFSRQTVA | – |
